These are yes or no findings as the source states them, for the method shown. Binding seen in cells or lysates may run through a third protein. Some entries that bind do so weakly or less than the wild type. Sequences can lack the tags named with a protein.
Molecular target: SRSF1 fused to the AP or the EX fragment of APEX2 (split-APEX fusion) (UniProt Q07955)
Assay: split reporter; split-APEX: AP and EX fusions co-transfected into HEK293T cells, both combinations of each pair; biotin tyramide 500 uM 30 min, H2O2 1 mM 1 min; cells lysed in 8 M urea; biotinylation detected by Western blotting with dye-labelled streptavidin

Sequences of proteins named here, by UniProt entry; tags and fusion partners are left off.
UniProt Q07955: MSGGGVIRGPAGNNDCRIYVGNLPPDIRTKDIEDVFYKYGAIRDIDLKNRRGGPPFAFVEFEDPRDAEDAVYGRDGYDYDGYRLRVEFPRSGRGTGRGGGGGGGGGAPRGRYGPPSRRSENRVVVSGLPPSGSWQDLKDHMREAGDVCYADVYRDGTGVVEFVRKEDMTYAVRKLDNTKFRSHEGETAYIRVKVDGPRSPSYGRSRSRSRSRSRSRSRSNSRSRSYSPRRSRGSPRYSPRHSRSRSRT
UniProt Q9UQ35: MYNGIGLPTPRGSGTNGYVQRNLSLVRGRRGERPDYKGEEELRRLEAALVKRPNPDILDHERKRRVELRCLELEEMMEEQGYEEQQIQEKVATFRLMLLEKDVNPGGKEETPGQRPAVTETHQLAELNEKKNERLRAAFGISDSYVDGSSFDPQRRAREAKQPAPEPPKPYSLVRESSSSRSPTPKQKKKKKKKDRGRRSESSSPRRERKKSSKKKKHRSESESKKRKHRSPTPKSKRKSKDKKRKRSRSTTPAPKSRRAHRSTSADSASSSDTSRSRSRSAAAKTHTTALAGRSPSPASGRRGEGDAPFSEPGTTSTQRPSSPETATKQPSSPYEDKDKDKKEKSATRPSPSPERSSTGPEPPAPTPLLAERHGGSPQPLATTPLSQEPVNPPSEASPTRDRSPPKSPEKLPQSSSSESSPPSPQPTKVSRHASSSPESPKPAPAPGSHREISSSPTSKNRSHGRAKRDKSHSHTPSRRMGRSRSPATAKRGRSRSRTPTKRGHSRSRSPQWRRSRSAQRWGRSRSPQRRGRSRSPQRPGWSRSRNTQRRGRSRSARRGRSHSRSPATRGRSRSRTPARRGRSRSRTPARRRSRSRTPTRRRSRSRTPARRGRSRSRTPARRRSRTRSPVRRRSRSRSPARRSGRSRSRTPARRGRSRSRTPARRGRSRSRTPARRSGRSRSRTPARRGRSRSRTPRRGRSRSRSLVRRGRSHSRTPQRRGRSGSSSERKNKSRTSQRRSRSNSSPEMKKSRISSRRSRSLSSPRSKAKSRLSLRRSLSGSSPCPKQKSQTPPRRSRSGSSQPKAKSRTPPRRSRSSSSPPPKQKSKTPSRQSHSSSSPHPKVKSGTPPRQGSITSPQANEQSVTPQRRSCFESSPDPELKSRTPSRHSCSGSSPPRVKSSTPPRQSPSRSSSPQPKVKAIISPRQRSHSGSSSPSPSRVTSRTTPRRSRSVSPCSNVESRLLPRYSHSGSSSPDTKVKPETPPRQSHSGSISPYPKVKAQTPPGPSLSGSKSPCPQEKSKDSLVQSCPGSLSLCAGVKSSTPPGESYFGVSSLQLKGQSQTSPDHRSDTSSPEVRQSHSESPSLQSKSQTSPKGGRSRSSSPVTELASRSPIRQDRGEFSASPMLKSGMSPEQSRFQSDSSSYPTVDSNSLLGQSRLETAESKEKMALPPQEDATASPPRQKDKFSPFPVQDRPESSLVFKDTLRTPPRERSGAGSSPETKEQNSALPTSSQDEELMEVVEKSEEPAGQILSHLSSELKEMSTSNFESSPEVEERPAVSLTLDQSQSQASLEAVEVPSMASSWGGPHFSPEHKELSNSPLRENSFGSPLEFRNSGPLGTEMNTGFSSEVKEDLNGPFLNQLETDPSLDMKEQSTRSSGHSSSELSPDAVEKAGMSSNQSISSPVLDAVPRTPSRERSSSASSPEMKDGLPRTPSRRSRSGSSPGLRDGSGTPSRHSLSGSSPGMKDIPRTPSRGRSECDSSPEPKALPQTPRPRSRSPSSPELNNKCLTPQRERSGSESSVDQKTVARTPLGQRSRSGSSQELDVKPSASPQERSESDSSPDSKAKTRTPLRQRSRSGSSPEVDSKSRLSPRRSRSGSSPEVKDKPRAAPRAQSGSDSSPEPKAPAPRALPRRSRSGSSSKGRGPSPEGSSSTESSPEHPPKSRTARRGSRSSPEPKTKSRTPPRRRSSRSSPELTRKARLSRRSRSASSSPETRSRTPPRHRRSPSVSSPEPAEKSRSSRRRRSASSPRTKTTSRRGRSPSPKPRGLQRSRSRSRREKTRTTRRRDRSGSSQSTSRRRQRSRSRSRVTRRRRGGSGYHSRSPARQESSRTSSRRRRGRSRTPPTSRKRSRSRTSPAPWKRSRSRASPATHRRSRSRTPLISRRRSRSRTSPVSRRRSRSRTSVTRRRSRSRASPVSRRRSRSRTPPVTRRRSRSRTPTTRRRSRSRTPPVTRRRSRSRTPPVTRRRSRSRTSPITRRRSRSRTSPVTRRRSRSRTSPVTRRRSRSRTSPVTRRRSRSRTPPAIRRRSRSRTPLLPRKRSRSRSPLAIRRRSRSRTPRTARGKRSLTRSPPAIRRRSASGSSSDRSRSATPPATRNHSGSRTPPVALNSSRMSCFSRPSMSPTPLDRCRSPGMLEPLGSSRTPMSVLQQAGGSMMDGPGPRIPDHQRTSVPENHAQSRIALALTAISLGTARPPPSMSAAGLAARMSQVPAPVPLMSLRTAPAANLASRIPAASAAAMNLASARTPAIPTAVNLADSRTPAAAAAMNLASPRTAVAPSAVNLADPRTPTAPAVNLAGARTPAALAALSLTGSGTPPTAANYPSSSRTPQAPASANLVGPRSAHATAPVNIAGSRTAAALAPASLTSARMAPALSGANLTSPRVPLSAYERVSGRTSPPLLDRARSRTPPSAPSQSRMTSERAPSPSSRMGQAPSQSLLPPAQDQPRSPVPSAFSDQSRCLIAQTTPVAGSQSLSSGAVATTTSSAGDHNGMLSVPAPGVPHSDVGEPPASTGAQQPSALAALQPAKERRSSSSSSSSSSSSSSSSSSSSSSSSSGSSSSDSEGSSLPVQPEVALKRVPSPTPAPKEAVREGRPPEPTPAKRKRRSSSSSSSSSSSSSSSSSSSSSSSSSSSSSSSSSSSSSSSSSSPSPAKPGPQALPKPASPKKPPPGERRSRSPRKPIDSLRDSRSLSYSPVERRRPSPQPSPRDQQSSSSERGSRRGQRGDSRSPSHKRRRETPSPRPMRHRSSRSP

binding	Molecule
binds	SRRM2 fused to the AP or the EX fragment of APEX2 (from UniProt Q9UQ35 1-2752)
binds	DHX16 fused to the AP or the EX fragment of APEX2 (protein, UniProt O60231 1-1041) MATPAGLERWVQDELHSVLGLSERHVAQFLIGTAQRCTSAEEFVQRLRDTDTLDLSGPARDFALRLWNKVPRKAVVEKPARAAEREARALLEKNRSYRLLEDSEESSEETVSRAGSSLQKKRKKRKHLRKKREEEEEEEASEKGKKKTGGSKQQTEKPESEDEWERTERERLQDLEERDAFAERVRQRDKDRTRNVLERSDKKAYEEAQKRLKMAEEDRKAMVPELRKKSRREYLAKREREKLEDLEAELADEEFLFGDVELSRHERQELKYKRRVRDLAREYRAAGEQEKLEATNRYHMPKETRGQPARAVDLVEEESGAPGEEQRRWEEARLGAASLKFGARDAASQEPKYQLVLEEEETIEFVRATQLQGDEEPSAPPTSTQAQQKESIQAVRRSLPVFPFREELLAAIANHQVLIIEGETGSGKTTQIPQYLFEEGYTNKGMKIACTQPRRVAAMSVAARVAREMGVKLGNEVGYSIRFEDCTSERTVLRYMTDGMLLREFLSEPDLASYSVVMVDEAHERTLHTDILFGLIKDVARFRPELKVLVASATMDTARFSTFFDDAPVFRIPGRRFPVDIFYTKAPEADYLEACVVSVLQIHVTQPPGDILVFLTGQEEIEAACEMLQDRCRRLGSKIRELLVLPIYANLPSDMQARIFQPTPPGARKVVVATNIAETSLTIEGIIYVLDPGFCKQKSYNPRTGMESLTVTPCSKASANQRAGRAGRVAAGKCFRLYTAWAYQHELEETTVPEIQRTSLGNVVLLLKSLGIHDLMHFDFLDPPPYETLLLALEQLYALGALNHLGELTTSGRKMAELPVDPMLSKMILASEKYSCSEEILTVAAMLSVNNSIFYRPKDKVVHADNARVNFFLPGGDHLVLLNVYTQWAESGYSSQWCYENFVQFRSMRRARDVREQLEGLLERVEVGLSSCQGDYIRVRKAITAGYFYHTARLTRSGYRTVKQQQTVFIHPNSSLFEQQPRWLLYHELVLTTKEFMRQVLEIESSWLLEVAPHYYKAKELEDPHAKKMPKKIGKTREELG
binds	DHX8 fused to the AP or the EX fragment of APEX2 (protein, UniProt Q14562 1-1220) MAVAVAMAGALIGSEPGPAEELAKLEYLSLVSKVCTELDNHLGINDKDLAEFVISLAEKNTTFDTFKASLVKNGAEFTDSLISNLLRLIQTMRPPAKPSTSKDPVVKPKTEKEKLKELFPVLCQPDNPSVRTMLDEDDVKVAVDVLKELEALMPSAAGQEKQRDAEHRDRTKKKKRSRSRDRNRDRDRDRERNRDRDHKRRHRSRSRSRSRTRERNKVKSRYRSRSRSQSPPKDRKDRDKYGERNLDRWRDKHVDRPPPEEPTIGDIYNGKVTSIMQFGCFVQLEGLRKRWEGLVHISELRREGRVANVADVVSKGQRVKVKVLSFTGTKTSLSMKDVDQETGEDLNPNRRRNLVGETNEETSMRNPDRPTHLSLVSAPEVEDDSLERKRLTRISDPEKWEIKQMIAANVLSKEEFPDFDEETGILPKVDDEEDEDLEIELVEEEPPFLRGHTKQSMDMSPIKIVKNPDGSLSQAAMMQSALAKERRELKQAQREAEMDSIPMGLNKHWVDPLPDAEGRQIAANMRGIGMMPNDIPEWKKHAFGGNKASYGKKTQMSILEQRESLPIYKLKEQLVQAVHDNQILIVIGETGSGKTTQITQYLAEAGYTSRGKIGCTQPRRVAAMSVAKRVSEEFGCCLGQEVGYTIRFEDCTSPETVIKYMTDGMLLRECLIDPDLTQYAIIMLDEAHERTIHTDVLFGLLKKTVQKRQDMKLIVTSATLDAVKFSQYFYEAPIFTIPGRTYPVEILYTKEPETDYLDASLITVMQIHLTEPPGDILVFLTGQEEIDTACEILYERMKSLGPDVPELIILPVYSALPSEMQTRIFDPAPPGSRKVVIATNIAETSLTIDGIYYVVDPGFVKQKVYNSKTGIDQLVVTPISQAQAKQRAGRAGRTGPGKCYRLYTERAYRDEMLTTNVPEIQRTNLASTVLSLKAMGINDLLSFDFMDAPPMETLITAMEQLYTLGALDDEGLLTRLGRRMAEFPLEPMLCKMLIMSVHLGCSEEMLTIVSMLSVQNVFYRPKDKQALADQKKAKFHQTEGDHLTLLAVYNSWKNNKFSNPWCYENFIQARSLRRAQDIRKQMLGIMDRHKLDVVSCGKSTVRVQKAICSGFFRNAAKKDPQEGYRTLIDQQVVYIHPSSALFNRQPEWVVYHELVLTTKEYMREVTTIDPRWLVEFAPAFFKVSDPTKLSKQKKQQRLEPLYNRYEEPNAWRISRAFRRR
binds	DHX38 fused to the AP or the EX fragment of APEX2 (protein, UniProt Q92620 1-1227) MGDTSEDASIHRLEGTDLDCQVGGLICKSKSAASEQHVFKAPAPRPSLLGLDLLASLKRREREEKDDGEDKKKSKVSSYKDWEESKDDQKDAEEEGGDQAGQNIRKDRHYRSARVETPSHPGGVSEEFWERSRQRERERREHGVYASSKEEKDWKKEKSRDRDYDRKRDRDERDRSRHSSRSERDGGSERSSRRNEPESPRHRPKDAATPSRSTWEEEDSGYGSSRRSQWESPSPTPSYRDSERSHRLSTRDRDRSVRGKYSDDTPLPTPSYKYNEWADDRRHLGSTPRLSRGRGRREEGEEGISFDTEEERQQWEDDQRQADRDWYMMDEGYDEFHNPLAYSSEDYVRRREQHLHKQKQKRISAQRRQINEDNERWETNRMLTSGVVHRLEVDEDFEEDNAAKVHLMVHNLVPPFLDGRIVFTKQPEPVIPVKDATSDLAIIARKGSQTVRKHREQKERKKAQHKHWELAGTKLGDIMGVKKEEEPDKAVTEDGKVDYRTEQKFADHMKRKSEASSEFAKKKSILEQRQYLPIFAVQQELLTIIRDNSIVIVVGETGSGKTTQLTQYLHEDGYTDYGMIGCTQPRRVAAMSVAKRVSEEMGGNLGEEVGYAIRFEDCTSENTLIKYMTDGILLRESLREADLDHYSAIIMDEAHERSLNTDVLFGLLREVVARRSDLKLIVTSATMDAEKFAAFFGNVPIFHIPGRTFPVDILFSKTPQEDYVEAAVKQSLQVHLSGAPGDILIFMPGQEDIEVTSDQIVEHLEELENAPALAVLPIYSQLPSDLQAKIFQKAPDGVRKCIVATNIAETSLTVDGIMFVIDSGYCKLKVFNPRIGMDALQIYPISQANANQRSGRAGRTGPGQCFRLYTQSAYKNELLTTTVPEIQRTNLANVVLLLKSLGVQDLLQFHFMDPPPEDNMLNSMYQLWILGALDNTGGLTSTGRLMVEFPLDPALSKMLIVSCDMGCSSEILLIVSMLSVPAIFYRPKGREEESDQIREKFAVPESDHLTYLNVYLQWKNNNYSTIWCNDHFIHAKAMRKVREVRAQLKDIMVQQRMSLASCGTDWDIVRKCICAAYFHQAAKLKGIGEYVNIRTGMPCHLHPTSSLFGMGYTPDYIVYHELVMTTKEYMQCVTAVDGEWLAELGPMFYSVKQAGKSRQENRRRAKEEASAMEEEMALAEEQLRARRQEQEKRSPLGSVRSTKIYTPGRKEQGEPMTPRRTPARFGL
binds	DDX46 fused to the AP or the EX fragment of APEX2 (protein, UniProt Q7L014 1-1031) MGRESRHYRKRSASRGRSGSRSRSRSPSDKRSKRGDDRRSRSRDRDRRRERSRSRDKRRSRSRDRKRLRRSRSRERDRSRERRRSRSRDRRRSRSRSRGRRSRSSSPGNKSKKTENRSRSKEKTDGGESSKEKKKDKDDKEDEKEKDAGNFDQNKLEEEMRKRKERVEKWREEQRKKAMENIGELKKEIEEMKQGKKWSLEDDDDDEDDPAEAEKEGNEMEGEELDPLDAYMEEVKEEVKKFNMRSVKGGGGNEKKSGPTVTKVVTVVTTKKAVVDSDKKKGELMENDQDAMEYSSEEEEVDLQTALTGYQTKQRKLLEPVDHGKIEYEPFRKNFYVEVPELAKMSQEEVNVFRLEMEGITVKGKGCPKPIKSWVQCGISMKILNSLKKHGYEKPTPIQTQAIPAIMSGRDLIGIAKTGSGKTIAFLLPMFRHIMDQRSLEEGEGPIAVIMTPTRELALQITKECKKFSKTLGLRVVCVYGGTGISEQIAELKRGAEIIVCTPGRMIDMLAANSGRVTNLRRVTYVVLDEADRMFDMGFEPQVMRIVDNVRPDRQTVMFSATFPRAMEALARRILSKPIEVQVGGRSVVCSDVEQQVIVIEEEKKFLKLLELLGHYQESGSVIIFVDKQEHADGLLKDLMRASYPCMSLHGGIDQYDRDSIINDFKNGTCKLLVATSVAARGLDVKHLILVVNYSCPNHYEDYVHRAGRTGRAGNKGYAYTFITEDQARYAGDIIKALELSGTAVPPDLEKLWSDFKDQQKAEGKIIKKSSGFSGKGFKFDETEQALANERKKLQKAALGLQDSDDEDAAVDIDEQIESMFNSKKRVKDMAAPGTSSVPAPTAGNAEKLEIAKRLALRINAQKNLGIESQDVMQQATNAILRGGTILAPTVSAKTIAEQLAEKINAKLNYVPLEKQEEERQDGGQNESFKRYEEELEINDFPQTARWKVTSKEALQRISEYSEAAITIRGTYFPPGKEPKEGERKIYLAIESANELAVQKAKAEITRLIKEELIRLQNSYQPTNKGRYKVL
binds	DDX23 fused to the AP or the EX fragment of APEX2 (protein, UniProt Q9BUQ8 1-820) MAGELADKKDRDASPSKEERKRSRTPDRERDRDRDRKSSPSKDRKRHRSRDRRRGGSRSRSRSRSKSAERERRHKERERDKERDRNKKDRDRDKDGHRRDKDRKRSSLSPGRGKDFKSRKDRDSKKDEEDEHGDKKPKAQPLSLEELLAKKKAEEEAEAKPKFLSKAEREAEALKRRQQEVEERQRMLEEERKKRKQFQDLGRKMLEDPQERERRERRERMERETNGNEDEEGRQKIREEKDKSKELHAIKERYLGGIKKRRRTRHLNDRKFVFEWDASEDTSIDYNPLYKERHQVQLLGRGFIAGIDLKQQKREQSRFYGDLMEKRRTLEEKEQEEARLRKLRKKEAKQRWDDRHWSQKKLDEMTDRDWRIFREDYSITTKGGKIPNPIRSWKDSSLPPHILEVIDKCGYKEPTPIQRQAIPIGLQNRDIIGVAETGSGKTAAFLIPLLVWITTLPKIDRIEESDQGPYAIILAPTRELAQQIEEETIKFGKPLGIRTVAVIGGISREDQGFRLRMGCEIVIATPGRLIDVLENRYLVLSRCTYVVLDEADRMIDMGFEPDVQKILEHMPVSNQKPDTDEAEDPEKMLANFESGKHKYRQTVMFTATMPPAVERLARSYLRRPAVVYIGSAGKPHERVEQKVFLMSESEKRKKLLAILEQGFDPPIIIFVNQKKGCDVLAKSLEKMGYNACTLHGGKGQEQREFALSNLKAGAKDILVATDVAGRGIDIQDVSMVVNYDMAKNIEDYIHRIGRTGRAGKSGVAITFLTKEDSAVFYELKQAILESPVSSCPPELANHPDAQHKPGTILTKKRREETIFA

From publication PMC12757297
